In article PMC3667761:
Results are given in words; binding and its absence hold for the method and conditions named. In cells and extracts the contact can be indirect. Some entries that bind do so weakly or less than the wild type. Each block holds one substance with its values, some of them ahead of it.

By UniProt entry, the sequences of proteins in these tests, tags left out. Where a name states a change or a piece, a line headed by the entry shows the natural chain unless it says otherwise.
UniProt P30281: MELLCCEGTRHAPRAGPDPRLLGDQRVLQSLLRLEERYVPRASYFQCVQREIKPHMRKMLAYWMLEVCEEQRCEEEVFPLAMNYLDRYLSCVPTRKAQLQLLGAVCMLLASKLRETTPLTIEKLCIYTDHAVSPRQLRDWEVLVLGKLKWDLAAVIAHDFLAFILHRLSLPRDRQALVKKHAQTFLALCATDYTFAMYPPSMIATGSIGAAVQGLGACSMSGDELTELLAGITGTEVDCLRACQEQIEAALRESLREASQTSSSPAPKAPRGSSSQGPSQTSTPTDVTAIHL
UniProt P38936: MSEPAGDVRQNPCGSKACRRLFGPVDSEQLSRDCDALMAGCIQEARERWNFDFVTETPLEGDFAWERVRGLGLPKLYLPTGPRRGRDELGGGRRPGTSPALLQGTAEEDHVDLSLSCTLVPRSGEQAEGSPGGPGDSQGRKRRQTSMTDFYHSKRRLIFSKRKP
UniProt P24385: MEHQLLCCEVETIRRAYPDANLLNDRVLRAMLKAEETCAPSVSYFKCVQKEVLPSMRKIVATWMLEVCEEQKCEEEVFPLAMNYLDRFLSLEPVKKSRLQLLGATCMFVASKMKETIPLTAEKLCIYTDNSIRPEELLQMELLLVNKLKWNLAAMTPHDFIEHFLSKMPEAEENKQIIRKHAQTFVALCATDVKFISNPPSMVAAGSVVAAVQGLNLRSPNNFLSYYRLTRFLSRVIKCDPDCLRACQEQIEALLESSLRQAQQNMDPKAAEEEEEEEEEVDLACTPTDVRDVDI
UniProt Q00534: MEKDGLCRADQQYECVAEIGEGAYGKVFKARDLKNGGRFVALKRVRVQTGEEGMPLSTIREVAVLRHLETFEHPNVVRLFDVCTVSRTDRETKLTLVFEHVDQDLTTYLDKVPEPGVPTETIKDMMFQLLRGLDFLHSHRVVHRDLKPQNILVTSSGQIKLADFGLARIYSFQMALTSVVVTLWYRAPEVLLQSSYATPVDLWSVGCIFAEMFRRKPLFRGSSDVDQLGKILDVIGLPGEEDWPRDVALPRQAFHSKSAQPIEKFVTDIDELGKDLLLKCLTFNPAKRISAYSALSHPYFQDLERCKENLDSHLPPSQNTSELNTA

Legend:
[1] = molecular target: Xpress-cyclin D3 (in CHO cells) (UniProt P30281); experiment: co-IP; CHO cells transfected with cyclin D3 (or cyclin D1-Flag), CDK4-HA and p21 or their mutants; IP with anti-cyclin D3 (DCS-28), anti-p21 or anti-Flag; SDS-PAGE or 2D gel and immunoblot; some immunoprecipitates incubated with ATP and recombinant kinases before the gel
[2] = molecular target: p21 (human (endogenous in HCT116)) (UniProt P38936); experiment: co-IP; HCT116 K7AS cells with Tet-On inducible S178P CDK6-Flag and cyclin D3, doxycycline and FBS, with or without 1-NMPP1; IP with anti-p21; 2D gel, anti-CDK6 blot
[3] = molecular target: cyclin D3 (human (endogenous in HCT116)) (UniProt P30281); experiment: co-IP; endogenous proteins from HCT116 lysates (wt, K7AS, p21-null); IP with anti-cyclin D1 (DCS-11), anti-cyclin D3 (DCS-28) or anti-p21 (C-19); SDS-PAGE or 2D gel and immunoblot; cells serum-deprived or stimulated with FBS, with or without 1-NMPP1, roscovitine, CR8, PD0332991 or MG132
[4] = molecular target: cyclin D1-Flag (in CHO cells) (UniProt P24385); experiment: co-IP; CHO cells transfected with cyclin D3 (or cyclin D1-Flag), CDK4-HA and p21 or their mutants; IP with anti-cyclin D3 (DCS-28), anti-p21 or anti-Flag; SDS-PAGE or 2D gel and immunoblot; some immunoprecipitates incubated with ATP and recombinant kinases before the gel
[5] = molecular target: cyclin D1 (human (endogenous in HCT116)) (UniProt P24385); experiment: co-IP; endogenous proteins from HCT116 lysates (wt, K7AS, p21-null); IP with anti-cyclin D1 (DCS-11), anti-cyclin D3 (DCS-28) or anti-p21 (C-19); SDS-PAGE or 2D gel and immunoblot; cells serum-deprived or stimulated with FBS, with or without 1-NMPP1, roscovitine, CR8, PD0332991 or MG132

Substance: human p21 S130A (in CHO cells) (from UniProt P38936 1-164)
- binding [1]: binds

Substance: human p21 T57A (in CHO cells) (from UniProt P38936 1-164)
- binding [1]: binds

Substance: human p21 S98A (in CHO cells) (from UniProt P38936 1-164)
- binding [1]: binds

Substance: p21 (from UniProt P38936 1-164)
- binding [5]: binds
- binding [3]: binds

The next lines start with the values.

- binding [2]: binds
Substance: S178P CDK6-Flag (from UniProt Q00534 1-326) (enzyme)

- binding [3]: binds
Substance: CDK6 (from UniProt Q00534 1-326) (enzyme)

- binding [1]: binds
- binding [4]: binds
Substance: human p21 (in CHO cells) (from UniProt P38936 1-164)
